No constants are given. Whether binding was seen depends on the method and setting. Some binding calls cover weakened binding; strength is not graded here.

The chains behind the UniProt entries cited, without tags or fusion partners.
UniProt P41597: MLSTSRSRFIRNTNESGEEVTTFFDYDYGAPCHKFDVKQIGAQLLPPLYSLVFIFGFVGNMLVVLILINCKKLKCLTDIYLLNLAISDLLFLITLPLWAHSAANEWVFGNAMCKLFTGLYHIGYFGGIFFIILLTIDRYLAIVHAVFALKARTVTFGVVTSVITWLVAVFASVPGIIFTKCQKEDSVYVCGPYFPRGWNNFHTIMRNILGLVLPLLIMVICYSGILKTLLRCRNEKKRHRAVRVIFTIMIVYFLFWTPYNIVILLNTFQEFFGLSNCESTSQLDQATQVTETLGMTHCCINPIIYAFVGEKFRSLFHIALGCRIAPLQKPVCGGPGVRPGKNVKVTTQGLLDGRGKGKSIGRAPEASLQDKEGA

In this test the target is human CC-chemokine receptor 2 (CCR2), endogenous on THP-1 cells, THP-1 membranes and human blood cells (human) (UniProt P41597). Put plainly: competition with 0.1 nM [125I]-MCP-1 on whole THP-1 cells.

B1: humanized version of mAb 1D9 (heavy chain 1D9RHAVH, light chain 1D9RKAVK) (antibody, V domains shown)
VH: EVQLVESGGGLVKPGGSLRLSCAASGFTFSAYAMNWVRQAPGKGLEWVGRIRTKNNNYATYYADSVKDRFTISRDDSKNTLYLQMNSLKTEDTAVYYCTTFYGNGVWGQGTLVTVSS
VL: DVVMTQSPLSLPVTLGQPASISCKSSQSLLDSDGKTFLNWFQQRPGQSPRRLIYLVSKLDSGVPDRFSGSGSGTDFTLKISRVEAEDVGVYYCWQGTHFPYTFGQGTRLEIK
B1: the binding entry was “binds”.

Values taken from patent publication US20130071381A1.
